# Source: the supplement of paper PMC12819154, “High-throughput peptide-centric local stability assay extends protein–ligand identification to membrane proteins, tissues and bacteria” (Nature Structural & Molecular Biology, 2025)
# Sequences of proteins named here, by UniProt entry; tags and fusion partners are left off. A change or cut given only in a name is not applied to a line headed by its entry.
# UniProt Q9R060: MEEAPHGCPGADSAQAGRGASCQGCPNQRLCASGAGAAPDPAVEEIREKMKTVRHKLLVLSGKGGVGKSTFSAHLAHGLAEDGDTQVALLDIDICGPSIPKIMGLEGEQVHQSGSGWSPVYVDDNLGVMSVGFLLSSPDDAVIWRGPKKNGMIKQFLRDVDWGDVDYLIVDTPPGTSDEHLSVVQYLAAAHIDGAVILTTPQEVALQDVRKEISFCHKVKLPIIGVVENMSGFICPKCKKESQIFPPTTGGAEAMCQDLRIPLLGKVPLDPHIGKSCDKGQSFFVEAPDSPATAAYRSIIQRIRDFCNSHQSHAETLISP
# UniProt Q9WUB4, whole entry: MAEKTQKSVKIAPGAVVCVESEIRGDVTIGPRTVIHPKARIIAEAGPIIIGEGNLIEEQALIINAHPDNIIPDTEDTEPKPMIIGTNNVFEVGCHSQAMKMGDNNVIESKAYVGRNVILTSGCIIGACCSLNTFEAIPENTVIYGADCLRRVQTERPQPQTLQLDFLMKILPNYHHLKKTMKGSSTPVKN
# UniProt Q9WTL8: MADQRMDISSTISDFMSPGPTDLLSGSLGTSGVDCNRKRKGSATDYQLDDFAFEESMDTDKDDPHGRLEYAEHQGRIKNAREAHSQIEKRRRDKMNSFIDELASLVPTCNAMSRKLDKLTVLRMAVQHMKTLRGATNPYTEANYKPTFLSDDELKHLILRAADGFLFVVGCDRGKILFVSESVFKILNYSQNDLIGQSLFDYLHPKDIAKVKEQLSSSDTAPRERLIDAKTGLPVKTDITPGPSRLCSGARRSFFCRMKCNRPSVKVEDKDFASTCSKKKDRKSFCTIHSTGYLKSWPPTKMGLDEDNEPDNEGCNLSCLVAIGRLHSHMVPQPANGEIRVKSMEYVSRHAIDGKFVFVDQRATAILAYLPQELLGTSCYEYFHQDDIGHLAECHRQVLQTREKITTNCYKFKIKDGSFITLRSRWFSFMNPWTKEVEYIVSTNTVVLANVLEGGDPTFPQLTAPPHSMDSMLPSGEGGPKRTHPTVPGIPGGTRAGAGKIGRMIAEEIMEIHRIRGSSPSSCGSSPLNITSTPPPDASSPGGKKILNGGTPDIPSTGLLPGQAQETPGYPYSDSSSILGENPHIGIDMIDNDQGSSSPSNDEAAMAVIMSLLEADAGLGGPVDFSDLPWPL
# UniProt Q9R1V6: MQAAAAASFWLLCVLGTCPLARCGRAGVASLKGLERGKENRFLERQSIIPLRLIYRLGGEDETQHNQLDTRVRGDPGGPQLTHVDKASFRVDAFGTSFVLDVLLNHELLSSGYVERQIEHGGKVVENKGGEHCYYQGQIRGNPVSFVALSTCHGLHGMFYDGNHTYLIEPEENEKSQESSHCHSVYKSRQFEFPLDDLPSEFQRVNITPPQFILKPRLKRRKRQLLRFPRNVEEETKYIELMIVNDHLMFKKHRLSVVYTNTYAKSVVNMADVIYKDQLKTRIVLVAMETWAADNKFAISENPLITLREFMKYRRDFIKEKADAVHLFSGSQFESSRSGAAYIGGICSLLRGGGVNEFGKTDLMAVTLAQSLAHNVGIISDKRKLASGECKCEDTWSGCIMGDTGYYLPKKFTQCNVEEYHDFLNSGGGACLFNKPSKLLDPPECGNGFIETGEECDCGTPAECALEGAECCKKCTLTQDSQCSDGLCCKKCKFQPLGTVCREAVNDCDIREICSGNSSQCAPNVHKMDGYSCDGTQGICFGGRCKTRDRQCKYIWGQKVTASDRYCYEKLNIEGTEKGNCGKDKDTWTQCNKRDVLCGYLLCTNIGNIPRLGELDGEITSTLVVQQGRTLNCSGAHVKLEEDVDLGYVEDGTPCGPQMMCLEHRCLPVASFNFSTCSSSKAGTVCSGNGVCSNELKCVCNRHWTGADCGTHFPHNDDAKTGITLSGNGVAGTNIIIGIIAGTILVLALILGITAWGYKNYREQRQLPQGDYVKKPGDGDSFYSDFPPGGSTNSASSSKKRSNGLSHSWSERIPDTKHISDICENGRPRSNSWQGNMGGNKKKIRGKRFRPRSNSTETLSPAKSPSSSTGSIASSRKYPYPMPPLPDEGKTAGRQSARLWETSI
# UniProt Q9Z0E8: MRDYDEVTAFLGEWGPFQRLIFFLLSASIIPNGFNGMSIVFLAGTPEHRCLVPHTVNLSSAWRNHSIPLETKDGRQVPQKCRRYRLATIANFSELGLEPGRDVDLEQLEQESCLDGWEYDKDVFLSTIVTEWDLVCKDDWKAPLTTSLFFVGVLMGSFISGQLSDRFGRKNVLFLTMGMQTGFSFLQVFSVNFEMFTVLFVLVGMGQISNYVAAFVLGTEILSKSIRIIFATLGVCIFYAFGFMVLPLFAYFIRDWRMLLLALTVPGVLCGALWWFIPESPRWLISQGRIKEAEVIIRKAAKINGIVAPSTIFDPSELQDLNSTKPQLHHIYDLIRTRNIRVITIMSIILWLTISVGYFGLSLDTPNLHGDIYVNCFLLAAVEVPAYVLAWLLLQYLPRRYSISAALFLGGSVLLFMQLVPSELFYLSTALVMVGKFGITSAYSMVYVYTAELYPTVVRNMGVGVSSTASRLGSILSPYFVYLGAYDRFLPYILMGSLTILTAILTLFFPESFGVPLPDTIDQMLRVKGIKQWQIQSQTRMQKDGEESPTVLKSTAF
# UniProt Q9QZH6: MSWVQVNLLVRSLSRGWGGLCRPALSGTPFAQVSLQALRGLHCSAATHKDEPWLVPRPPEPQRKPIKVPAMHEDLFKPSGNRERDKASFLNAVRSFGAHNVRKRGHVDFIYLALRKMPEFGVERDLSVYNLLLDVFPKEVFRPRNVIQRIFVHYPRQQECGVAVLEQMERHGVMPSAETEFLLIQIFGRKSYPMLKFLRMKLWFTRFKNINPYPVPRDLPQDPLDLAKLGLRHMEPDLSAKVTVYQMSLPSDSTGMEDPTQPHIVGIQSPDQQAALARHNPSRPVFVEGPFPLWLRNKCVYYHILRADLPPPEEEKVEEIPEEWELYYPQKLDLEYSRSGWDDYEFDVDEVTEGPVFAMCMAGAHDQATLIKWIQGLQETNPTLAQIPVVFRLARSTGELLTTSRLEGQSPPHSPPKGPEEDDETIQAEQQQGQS
# UniProt Q9WU78: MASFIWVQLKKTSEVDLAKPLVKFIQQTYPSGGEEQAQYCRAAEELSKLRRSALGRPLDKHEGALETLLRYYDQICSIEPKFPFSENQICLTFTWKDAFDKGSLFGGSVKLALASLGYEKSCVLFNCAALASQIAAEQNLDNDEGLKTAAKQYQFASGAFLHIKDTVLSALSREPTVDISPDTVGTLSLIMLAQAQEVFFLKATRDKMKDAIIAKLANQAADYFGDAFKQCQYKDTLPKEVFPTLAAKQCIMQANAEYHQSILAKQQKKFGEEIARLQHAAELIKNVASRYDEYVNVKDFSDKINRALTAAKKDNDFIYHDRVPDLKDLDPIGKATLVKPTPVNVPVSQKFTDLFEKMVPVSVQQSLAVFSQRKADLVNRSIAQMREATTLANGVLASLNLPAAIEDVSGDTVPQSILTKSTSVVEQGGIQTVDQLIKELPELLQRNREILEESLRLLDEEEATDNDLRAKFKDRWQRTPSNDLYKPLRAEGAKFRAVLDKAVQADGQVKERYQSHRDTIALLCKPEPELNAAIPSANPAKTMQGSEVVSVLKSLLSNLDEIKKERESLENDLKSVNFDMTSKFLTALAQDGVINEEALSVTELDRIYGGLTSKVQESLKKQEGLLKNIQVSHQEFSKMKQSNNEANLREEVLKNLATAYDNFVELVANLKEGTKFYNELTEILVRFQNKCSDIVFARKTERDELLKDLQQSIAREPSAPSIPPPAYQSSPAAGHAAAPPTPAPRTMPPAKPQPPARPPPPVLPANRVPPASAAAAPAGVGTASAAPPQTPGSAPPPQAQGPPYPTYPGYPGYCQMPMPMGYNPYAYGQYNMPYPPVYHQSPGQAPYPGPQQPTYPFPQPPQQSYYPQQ
# UniProt Q9WU28, whole entry: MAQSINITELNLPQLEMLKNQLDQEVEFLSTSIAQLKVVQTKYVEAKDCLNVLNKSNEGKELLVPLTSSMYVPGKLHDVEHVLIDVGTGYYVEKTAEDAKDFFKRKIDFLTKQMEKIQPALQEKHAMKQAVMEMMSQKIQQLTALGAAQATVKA
# UniProt Q9WUM4, whole entry: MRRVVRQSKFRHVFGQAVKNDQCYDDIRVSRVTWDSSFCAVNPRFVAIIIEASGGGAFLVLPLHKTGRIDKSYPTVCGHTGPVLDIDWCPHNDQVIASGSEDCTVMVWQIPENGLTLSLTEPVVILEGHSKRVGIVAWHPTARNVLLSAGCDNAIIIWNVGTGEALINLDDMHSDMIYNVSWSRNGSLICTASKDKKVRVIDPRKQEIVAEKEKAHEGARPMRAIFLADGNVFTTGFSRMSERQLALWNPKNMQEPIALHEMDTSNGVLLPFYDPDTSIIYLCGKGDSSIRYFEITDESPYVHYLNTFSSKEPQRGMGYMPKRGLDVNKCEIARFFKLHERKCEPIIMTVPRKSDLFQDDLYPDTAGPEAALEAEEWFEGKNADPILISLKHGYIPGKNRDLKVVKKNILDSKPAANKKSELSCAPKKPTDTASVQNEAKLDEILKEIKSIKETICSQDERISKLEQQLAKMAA
# UniProt Q9R1T2: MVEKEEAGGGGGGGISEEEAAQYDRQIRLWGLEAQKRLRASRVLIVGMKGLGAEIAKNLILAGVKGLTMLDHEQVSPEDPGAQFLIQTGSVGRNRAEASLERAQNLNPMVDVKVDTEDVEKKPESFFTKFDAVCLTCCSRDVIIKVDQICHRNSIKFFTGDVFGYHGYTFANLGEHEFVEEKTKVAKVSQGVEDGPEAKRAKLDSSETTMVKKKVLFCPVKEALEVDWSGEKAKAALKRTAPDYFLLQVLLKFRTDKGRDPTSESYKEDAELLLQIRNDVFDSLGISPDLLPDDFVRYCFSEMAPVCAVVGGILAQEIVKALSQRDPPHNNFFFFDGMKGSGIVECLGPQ
# UniProt Q9WVA4: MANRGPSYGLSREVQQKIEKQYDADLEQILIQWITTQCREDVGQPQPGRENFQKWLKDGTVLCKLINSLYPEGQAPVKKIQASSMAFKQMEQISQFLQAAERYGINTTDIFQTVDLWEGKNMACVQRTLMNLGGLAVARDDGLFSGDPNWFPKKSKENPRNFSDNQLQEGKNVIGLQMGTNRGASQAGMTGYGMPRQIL
# UniProt Q9QZ85: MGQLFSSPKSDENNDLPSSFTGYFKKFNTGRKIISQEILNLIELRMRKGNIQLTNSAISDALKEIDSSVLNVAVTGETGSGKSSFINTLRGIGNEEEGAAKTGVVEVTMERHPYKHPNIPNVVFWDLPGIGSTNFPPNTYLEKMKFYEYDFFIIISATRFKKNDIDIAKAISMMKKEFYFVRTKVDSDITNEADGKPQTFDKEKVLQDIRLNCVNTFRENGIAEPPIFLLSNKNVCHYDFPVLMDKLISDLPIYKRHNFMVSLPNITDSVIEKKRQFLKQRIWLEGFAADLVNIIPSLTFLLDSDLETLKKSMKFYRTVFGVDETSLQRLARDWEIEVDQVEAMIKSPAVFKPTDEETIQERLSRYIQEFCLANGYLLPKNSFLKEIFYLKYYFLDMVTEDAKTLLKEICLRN
# UniProt Q9Z127: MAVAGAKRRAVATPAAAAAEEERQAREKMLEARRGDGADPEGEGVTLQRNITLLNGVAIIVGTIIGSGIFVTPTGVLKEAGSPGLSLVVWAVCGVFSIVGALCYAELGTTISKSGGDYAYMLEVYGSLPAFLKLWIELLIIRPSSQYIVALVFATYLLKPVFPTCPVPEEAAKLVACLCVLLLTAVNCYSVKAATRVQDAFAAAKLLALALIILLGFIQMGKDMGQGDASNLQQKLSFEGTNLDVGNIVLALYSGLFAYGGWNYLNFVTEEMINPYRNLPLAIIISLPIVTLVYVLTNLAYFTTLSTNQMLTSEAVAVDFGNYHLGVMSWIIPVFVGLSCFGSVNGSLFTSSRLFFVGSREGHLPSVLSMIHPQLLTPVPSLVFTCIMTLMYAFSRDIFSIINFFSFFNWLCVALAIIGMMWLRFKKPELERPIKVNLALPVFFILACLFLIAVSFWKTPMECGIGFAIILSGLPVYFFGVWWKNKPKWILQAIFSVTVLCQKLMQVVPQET
# UniProt Q9WTM5, whole entry: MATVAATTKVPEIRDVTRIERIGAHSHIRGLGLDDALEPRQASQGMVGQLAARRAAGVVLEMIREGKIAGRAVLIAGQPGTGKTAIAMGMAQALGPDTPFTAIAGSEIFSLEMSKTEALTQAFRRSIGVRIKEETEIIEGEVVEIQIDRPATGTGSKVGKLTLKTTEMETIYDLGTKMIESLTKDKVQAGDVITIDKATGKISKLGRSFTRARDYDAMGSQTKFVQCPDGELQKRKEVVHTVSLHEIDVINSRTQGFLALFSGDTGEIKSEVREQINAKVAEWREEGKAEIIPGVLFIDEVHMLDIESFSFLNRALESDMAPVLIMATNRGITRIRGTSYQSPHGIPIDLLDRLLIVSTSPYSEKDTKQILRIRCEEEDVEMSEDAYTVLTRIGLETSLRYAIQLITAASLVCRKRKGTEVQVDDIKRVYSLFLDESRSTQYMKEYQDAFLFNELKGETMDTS
# This is one part of the list. Small differences around the control level are noise.
# Compound: CN[C@@H]1C[C@H]2O[C@@](C)([C@@H]1OC)n1c3ccccc3c3c4c(c5c6ccccc6n2c5c31)C(=O)NC4 [staurosporine]
# Experiment: log2 fold change of pooled soluble protein (PISA), ligand vs vehicle (log2 ratio); higher = more thermally stabilized
# Conditions: ligand concentration: 20 uM; assay format: PISA pool 52.9/55.5/58.6 C
row,Target,log2 fold change of pooled soluble protein
1,UniProt Q9Z0K8,0.0791
2,UniProt Q9R098,0.0814
3,UniProt Q9WTP6,-0.145
4,UniProt Q9R060,-0.179
5,UniProt Q9Z210,-0.0659
6,UniProt Q9WUB4,-0.504
7,UniProt Q9QZ73,0.0349
8,UniProt Q9R1J0,0.117
9,UniProt Q9WTL8,-0.304
10,UniProt Q9QZE7,-0.113
11,UniProt Q9R1V6,-0.612
12,UniProt Q9R0A0,-0.0155
13,UniProt Q9Z1Q5,-0.0671
14,UniProt Q9Z0E8,-0.14
15,UniProt Q9Z1Z2,0.0839
16,UniProt Q9WUR2,0.0384
17,UniProt Q9QZH6,0.0701
18,UniProt Q9WUB3,-0.174
19,UniProt Q9WU60,0.213
20,UniProt Q9Z1T2,-0.141

row,Target,log2 fold change of pooled soluble protein
1,UniProt Q9WU78,-0.0377
2,UniProt Q9WU28,0.0503
3,UniProt Q9WV91,0.198
4,UniProt Q9WUM4,0.0632
5,UniProt Q9WTQ5,-0.0321
6,UniProt Q9R1T2,-0.00689
7,UniProt Q9WVA4,-0.0481
8,UniProt Q9QZ25,-0.119
9,UniProt Q9R0M4,0.287
10,UniProt Q9QZR0,0.000992
11,UniProt Q9Z2A7,0.0503
12,UniProt Q9QZ85,-0.0152
13,UniProt Q9Z1F9,-0.0404
14,UniProt Q9WVG9,-0.139
15,UniProt Q9Z127,-0.0822
16,UniProt Q9WTU0,-0.00417
17,UniProt Q9WTM5,-0.0753
18,UniProt Q9WV80,-0.0515
19,UniProt Q9WUR9,-0.117

# Taken from above.
# Entry for UniProt Q9R1T2 under log2 fold change of pooled soluble protein: -0.00689
# Entry for UniProt Q9R0A0 under log2 fold change of pooled soluble protein: -0.0155
# Entry for UniProt Q9QZ85 under log2 fold change of pooled soluble protein: -0.0152
